Negatives hold for the conditions tested. For some assays here: The exact form of at least one protein or probe is not confirmed.

The chains behind the UniProt entries cited, without tags or fusion partners. Residues count along the entry.
UniProt P02769, 25-607: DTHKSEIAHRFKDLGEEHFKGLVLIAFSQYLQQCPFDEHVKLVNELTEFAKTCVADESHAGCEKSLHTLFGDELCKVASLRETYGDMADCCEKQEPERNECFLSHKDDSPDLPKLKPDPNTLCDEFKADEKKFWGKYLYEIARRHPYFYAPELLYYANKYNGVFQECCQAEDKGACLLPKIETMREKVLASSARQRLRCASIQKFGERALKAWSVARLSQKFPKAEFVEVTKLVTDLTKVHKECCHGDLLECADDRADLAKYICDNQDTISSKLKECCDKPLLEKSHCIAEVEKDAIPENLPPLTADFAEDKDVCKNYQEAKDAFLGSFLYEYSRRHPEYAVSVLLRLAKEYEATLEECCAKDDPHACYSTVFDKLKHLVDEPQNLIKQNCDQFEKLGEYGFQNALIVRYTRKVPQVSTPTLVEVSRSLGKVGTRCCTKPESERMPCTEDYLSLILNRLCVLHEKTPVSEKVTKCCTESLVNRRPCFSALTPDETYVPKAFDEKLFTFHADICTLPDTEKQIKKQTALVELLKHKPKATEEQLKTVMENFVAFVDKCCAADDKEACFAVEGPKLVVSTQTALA

In data set [1] the target is CA-125 (UniProt Q8WXI7). Description: electrochemistry (on-chip bead-bound aptamer). The note with it: 1 mg/mL, no significant signal (<15%); Buffer C: 100 mM Tris-HCl pH 7.4, 100 mM NaCl, 1 mM MgCl2, 5 mM KCl; room temperature (optimized conditions stated as pH 7.5, 100 mM salt); commercial protein; folded or branched DNA.
The target in data set [2] is BSA (UniProt P02769). Description: electrochemistry (on-chip bead-bound aptamer). The note with it: 2 mg/mL, no significant signal (<15% of 500 pg/mL IFN-γ response); Buffer C: 100 mM Tris-HCl pH 7.4, 100 mM NaCl, 1 mM MgCl2, 5 mM KCl; room temperature (optimized conditions stated as pH 7.5, 100 mM salt); commercial protein; folded or branched DNA.

For the sequence “GGGGTTGGTTGTGTTGGGTGTTGTGTCCAACCCC [Fc-labeled IFN-γ hairpin aptamer (MB-aptamer)]”, the binding result in data set [1] and in data set [2] was “no binding” throughout.

These data come from PMC6799845.
